Results published in the supplement of paper PMC8728848.
This is one part of the list.

Key:
Assay in all cases: glycan array binding signal (z-score within array); higher = stronger binding
Details in all cases: glycan notation: IUPAC condensed, linker removed
[1] = target: Neu5Ac(a2-3)Gal6S(b1-4)[Fuc(a1-3)]GlcNAc
Procedure, shortened: (§1)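 The binding signal is a Z-score computed within each array. Data were drawn from 3228 arrays in the Consortium for Functional Glycomics database, restricted to those with a known protein sequence. Scores were averaged over arrays of the same protein sequence at different concentrations or buffers, and over linkers, and negative values can be taken as non-binding.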

[2] = target: Neu5Ac(a2-3)GalNAc
Procedure, shortened: as §1

[3] = target: Neu5Ac(a2-3)GalNAc(b1-4)GlcNAc
Procedure, shortened: as §1

[4] = target: Neu5Ac(a2-3)[GalNAc(b1-4)]Gal(b1-4)Glc
Procedure, shortened: as §1

[5] = target: Neu5Ac(a2-3)[GalNAc(b1-4)]Gal(b1-4)GlcNAc
Procedure, shortened: as §1

[6] = target: Neu5Ac(a2-3)[GalNAc(b1-4)]Gal(b1-4)GlcNAc(b1-3)GalNAc
Procedure, shortened: as §1

[7] = target: Neu5Ac(a2-3)[Neu5Ac(a2-6)]GalNAc
Procedure, shortened: as §1

[8] = target: Neu5Ac(a2-6)Gal
Procedure, shortened: as §1

[9] = target: Neu5Ac(a2-6)Gal(b1-3)GlcNAc(b1-3)[Gal(b1-4)GlcNAc(b1-6)]Gal(b1-4)Glc
Procedure, shortened: as §1

[10] = target: Neu5Ac(a2-6)Gal(b1-4)Glc
Procedure, shortened: as §1

[11] = target: Neu5Ac(a2-6)Gal(b1-4)GlcNAc
Procedure, shortened: as §1

[12] = target: Neu5Ac(a2-6)Gal(b1-4)GlcNAc(b1-2)Man
Procedure, shortened: as §1

[13] = target: Neu5Ac(a2-6)Gal(b1-4)GlcNAc(b1-2)Man(a1-3)Man(b1-4)GlcNAc(b1-4)GlcNAc
Procedure, shortened: as §1

[14] = target: Neu5Ac(a2-6)Gal(b1-4)GlcNAc(b1-2)Man(a1-3)[Gal(b1-4)GlcNAc(b1-2)Man(a1-6)]Man(b1-4)GlcNAc(b1-4)GlcNAc
Procedure, shortened: as §1

[15] = target: Neu5Ac(a2-6)Gal(b1-4)GlcNAc(b1-2)Man(a1-3)[GlcNAc(b1-2)Man(a1-6)]Man(b1-4)GlcNAc(b1-4)GlcNAc
Procedure, shortened: as §1

[16] = target: Neu5Ac(a2-6)Gal(b1-4)GlcNAc(b1-2)Man(a1-3)[GlcNAc(b1-4)][Neu5Ac(a2-6)Gal(b1-4)GlcNAc(b1-2)Man(a1-6)]Man(b1-4)GlcNAc(b1-4)GlcNAc
Procedure, shortened: as §1

[17] = target: Neu5Ac(a2-6)Gal(b1-4)GlcNAc(b1-2)Man(a1-3)[Man(a1-6)]Man(b1-4)GlcNAc(b1-4)GlcNAc
Procedure, shortened: as §1

[18] = target: Neu5Ac(a2-6)Gal(b1-4)GlcNAc(b1-2)Man(a1-3)[Neu5Ac(a2-3)Gal(b1-4)GlcNAc(b1-2)Man(a1-6)]Man(b1-4)GlcNAc(b1-4)GlcNAc
Procedure, shortened: as §1

[19] = target: Neu5Ac(a2-6)Gal(b1-4)GlcNAc(b1-2)Man(a1-3)[Neu5Ac(a2-6)Gal(b1-4)GlcNAc(b1-2)Man(a1-6)]Man(b1-4)GlcNAc(b1-4)GlcNAc
Procedure, shortened: as §1

[20] = target: Neu5Ac(a2-6)Gal(b1-4)GlcNAc(b1-2)Man(a1-3)[Neu5Ac(a2-6)Gal(b1-4)GlcNAc(b1-2)Man(a1-6)]Man(b1-4)GlcNAc(b1-4)[Fuc(a1-6)]GlcNAc
Procedure, shortened: as §1

[21] = target: Neu5Ac(a2-6)Gal(b1-4)GlcNAc(b1-2)Man(a1-6)Man(b1-4)GlcNAc(b1-4)GlcNAc
Procedure, shortened: as §1

[22] = target: Neu5Ac(a2-6)Gal(b1-4)GlcNAc(b1-2)Man(a1-6)[Gal(b1-4)GlcNAc(b1-2)Man(a1-3)]Man(b1-4)GlcNAc(b1-4)GlcNAc
Procedure, shortened: as §1

[23] = target: Neu5Ac(a2-6)Gal(b1-4)GlcNAc(b1-2)Man(a1-6)[GlcNAc(b1-2)Man(a1-3)]Man(b1-4)GlcNAc(b1-4)GlcNAc
Procedure, shortened: as §1

[24] = target: Neu5Ac(a2-6)Gal(b1-4)GlcNAc(b1-2)Man(a1-6)[Man(a1-3)]Man(b1-4)GlcNAc(b1-4)GlcNAc
Procedure, shortened: as §1

[25] = target: Neu5Ac(a2-6)Gal(b1-4)GlcNAc(b1-2)[Neu5Ac(a2-6)Gal(b1-4)GlcNAc(b1-4)]Man(a1-3)[GlcNAc(b1-4)][Neu5Ac(a2-6)Gal(b1-4)GlcNAc(b1-2)[Neu5Ac(a2-6)Gal(b1-4)GlcNAc(b1-6)]Man(a1-6)]Man(b1-4)GlcNAc(b1-4)GlcNAc
Procedure, shortened: as §1

[26] = target: Neu5Ac(a2-6)Gal(b1-4)GlcNAc(b1-2)[Neu5Ac(a2-6)Gal(b1-4)GlcNAc(b1-4)]Man(a1-3)[GlcNAc(b1-4)][Neu5Ac(a2-6)Gal(b1-4)GlcNAc(b1-4)Man(a1-6)]Man(b1-4)GlcNAc(b1-4)GlcNAc
Procedure, shortened: as §1

[27] = target: Neu5Ac(a2-6)Gal(b1-4)GlcNAc(b1-2)[Neu5Ac(a2-6)Gal(b1-4)GlcNAc(b1-6)]Man(a1-6)[Neu5Ac(a2-6)Gal(b1-4)GlcNAc(b1-2)Man(a1-3)][GlcNAc(b1-4)]Man(b1-4)GlcNAc(b1-4)GlcNAc
Procedure, shortened: as §1

[28] = target: Neu5Ac(a2-6)Gal(b1-4)GlcNAc(b1-3)Gal(b1-3)GlcNAc
Procedure, shortened: as §1

[29] = target: Neu5Ac(a2-6)Gal(b1-4)GlcNAc(b1-3)Gal(b1-4)GlcNAc
Procedure, shortened: as §1

[30] = target: Neu5Ac(a2-6)Gal(b1-4)GlcNAc(b1-3)Gal(b1-4)GlcNAc(b1-2)Man(a1-3)[Neu5Ac(a2-6)Gal(b1-4)GlcNAc(b1-3)Gal(b1-4)GlcNAc(b1-2)Man(a1-6)]GalNAc
Procedure, shortened: as §1

[31] = target: Neu5Ac(a2-6)Gal(b1-4)GlcNAc(b1-3)Gal(b1-4)GlcNAc(b1-3)Gal(b1-4)GlcNAc
Procedure, shortened: as §1

[32] = target: Neu5Ac(a2-6)Gal(b1-4)GlcNAc(b1-3)Gal(b1-4)GlcNAc(b1-3)Gal(b1-4)GlcNAc(b1-2)Man(a1-3)[Neu5Ac(a2-6)Gal(b1-4)GlcNAc(b1-3)Gal(b1-4)GlcNAc(b1-3)Gal(b1-4)GlcNAc(b1-2)Man(a1-6)]GalNAc
Procedure, shortened: as §1

[33] = target: Neu5Ac(a2-6)Gal(b1-4)GlcNAc(b1-3)Gal(b1-4)GlcNAc(b1-3)GalNAc
Procedure, shortened: as §1

[34] = target: Neu5Ac(a2-6)Gal(b1-4)GlcNAc(b1-3)Gal(b1-4)GlcNAc(b1-3)[Neu5Ac(a2-6)Gal(b1-4)GlcNAc(b1-3)Gal(b1-4)GlcNAc(b1-6)]GalNAc
Procedure, shortened: as §1

[35] = target: Neu5Ac(a2-6)Gal(b1-4)GlcNAc(b1-3)Gal(b1-4)GlcNAc(b1-6)[Gal(b1-3)]GalNAc
Procedure, shortened: as §1

[36] = target: Neu5Ac(a2-6)Gal(b1-4)GlcNAc(b1-3)Gal(b1-4)[Fuc(a1-3)]GlcNAc(b1-3)Gal(b1-4)[Fuc(a1-3)]GlcNAc
Procedure, shortened: as §1

[37] = target: Neu5Ac(a2-6)Gal(b1-4)GlcNAc(b1-3)GalNAc
Procedure, shortened: as §1

[38] = target: Neu5Ac(a2-6)Gal(b1-4)GlcNAc(b1-3)[Neu5Ac(a2-6)Gal(b1-4)GlcNAc(b1-6)]GalNAc
Procedure, shortened: as §1

[39] = target: Neu5Ac(a2-6)Gal(b1-4)GlcNAc(b1-6)GalNAc
Procedure, shortened: as §1

[40] = target: Neu5Ac(a2-6)Gal(b1-4)GlcNAc(b1-6)[Gal(b1-3)GlcNAc(b1-3)]Gal(b1-4)Glc
Procedure, shortened: as §1

[41] = target: Neu5Ac(a2-6)Gal(b1-4)GlcNAc(b1-6)[Gal(b1-3)]GalNAc
Procedure, shortened: as §1

[42] = target: Neu5Ac(a2-6)Gal(b1-4)GlcNAc6S
Procedure, shortened: as §1

[43] = target: Neu5Ac(a2-6)GalNAc
Procedure, shortened: as §1

[44] = target: Neu5Ac(a2-6)GalNAc(b1-4)GlcNAc
Procedure, shortened: as §1

[45] = target: Neu5Ac(a2-6)GalNAc(b1-4)GlcNAc6S
Procedure, shortened: as §1

B1: AT3G09350(27) (Arabidopsis thaliana), Q84J81 (protein)
chain: MAKDGPNWDGLLKWSLSHADGTRPTRQLSEEDRKWFMEAMQSQTVDVVKRMKEITLVMQTPEQVLVEHGVTPEDIQDLLDELQEHVESIDMANDLHSIGGLVPLLSFLKNSHANIRAKAADVVSTIVQNNPRSQELVMETNALESLLSNFTSDTDIHARTQALGAISSLIRHNKPGVTAFKLANGYAGLRDALASDSVRFQRKALNLLQYLLQEDDSDRSIATGLGFPRVMMHLASSDDAEIREAALRGLLELSREKNDGSSSIDKSDEKLRQLLEERIKGITLMSQEDLETVKEERQLVDLLWSICYNEPSSLREKGLVVLPGEDALPPDVASKLFEPPLRASAANRNATEKKDEPMKLLGP
glycan array binding signal (z-score) [1]: -0.42 | glycan array binding signal (z-score) [2]: 0.458 | glycan array binding signal (z-score) [3]: -0.608 | glycan array binding signal (z-score) [4]: -0.788 | glycan array binding signal (z-score) [5]: -0.121 | glycan array binding signal (z-score) [6]: 0.312 | glycan array binding signal (z-score) [7]: -0.855 | glycan array binding signal (z-score) [8]: -0.683 | glycan array binding signal (z-score) [9]: 0.54 | glycan array binding signal (z-score) [10]: -0.395 | glycan array binding signal (z-score) [11]: 0.001 | glycan array binding signal (z-score) [12]: 0.62 | glycan array binding signal (z-score) [13]: -0.684 | glycan array binding signal (z-score) [14]: -0.016 | glycan array binding signal (z-score) [15]: 0.05 | glycan array binding signal (z-score) [16]: -0.201 | glycan array binding signal (z-score) [17]: -0.115 | glycan array binding signal (z-score) [18]: -0.453 | glycan array binding signal (z-score) [19]: 0.535 | glycan array binding signal (z-score) [20]: -0.493 | glycan array binding signal (z-score) [21]: -0.555 | glycan array binding signal (z-score) [22]: -0.867 | glycan array binding signal (z-score) [23]: -0.127 | glycan array binding signal (z-score) [24]: -0.534 | glycan array binding signal (z-score) [25]: -0.767 | glycan array binding signal (z-score) [26]: 1.22 | glycan array binding signal (z-score) [27]: 0.628 | glycan array binding signal (z-score) [28]: -0.492 | glycan array binding signal (z-score) [29]: -0.435 | glycan array binding signal (z-score) [30]: -0.335 | glycan array binding signal (z-score) [31]: 0.134 | glycan array binding signal (z-score) [32]: 1.2 | glycan array binding signal (z-score) [33]: 0.239 | glycan array binding signal (z-score) [34]: -0.252 | glycan array binding signal (z-score) [35]: -0.005 | glycan array binding signal (z-score) [36]: -0.844 | glycan array binding signal (z-score) [37]: -0.821 | glycan array binding signal (z-score) [38]: -0.304 | glycan array binding signal (z-score) [39]: -0.618 | glycan array binding signal (z-score) [40]: 0.201 | glycan array binding signal (z-score) [41]: -0.158 | glycan array binding signal (z-score) [42]: -0.24 | glycan array binding signal (z-score) [43]: -0.655 | glycan array binding signal (z-score) [44]: -0.882 | glycan array binding signal (z-score) [45]: -0.91
